No constants are given. Whether binding was seen depends on the method and setting. In cells and extracts the contact can be indirect. Binding calls can cover weak binding; strength is not graded here.
How the values were obtained:
[1] = target: poly(A) binding protein 1 (PABP) (human (endogenous in T/C28a4)) (UniProt P11940); assay: co-IP; lysates of the T/C28a4 chondrocyte line stably transfected with full-length ADAM15 or the ΔC mutant (10 mM HEPES pH 7.0, 150 mM NaCl, 5 mM EDTA, 1% Triton X-100); IP with mouse monoclonal or goat polyclonal anti-ADAM15, or with anti-PABP, and Protein G agarose, 90 min at 4°C; immunoblot; also with RNase I (5 U/ml) overnight
[2] = target: full-length ADAM15 (UniProt Q13444); assay: as above

Sequences of proteins named here, by UniProt entry; tags and fusion partners are left off. A change or cut given only in a name is not applied to a line headed by its entry.
UniProt P11940: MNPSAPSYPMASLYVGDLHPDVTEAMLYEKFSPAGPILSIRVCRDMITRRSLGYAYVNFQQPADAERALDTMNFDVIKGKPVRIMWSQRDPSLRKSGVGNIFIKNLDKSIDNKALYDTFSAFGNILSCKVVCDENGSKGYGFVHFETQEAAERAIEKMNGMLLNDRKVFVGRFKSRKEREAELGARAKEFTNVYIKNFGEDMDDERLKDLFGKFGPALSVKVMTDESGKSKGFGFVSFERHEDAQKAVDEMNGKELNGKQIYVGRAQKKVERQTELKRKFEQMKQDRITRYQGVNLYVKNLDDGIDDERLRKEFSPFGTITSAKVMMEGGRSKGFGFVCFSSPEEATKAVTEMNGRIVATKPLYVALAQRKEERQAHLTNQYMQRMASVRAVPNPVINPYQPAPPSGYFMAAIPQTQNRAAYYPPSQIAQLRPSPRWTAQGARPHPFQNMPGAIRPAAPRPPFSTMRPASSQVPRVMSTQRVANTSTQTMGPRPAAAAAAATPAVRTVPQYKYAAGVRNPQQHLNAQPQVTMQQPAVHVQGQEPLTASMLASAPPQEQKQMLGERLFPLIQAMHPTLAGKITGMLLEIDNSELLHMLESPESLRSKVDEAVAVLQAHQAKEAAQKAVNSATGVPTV
UniProt Q13444: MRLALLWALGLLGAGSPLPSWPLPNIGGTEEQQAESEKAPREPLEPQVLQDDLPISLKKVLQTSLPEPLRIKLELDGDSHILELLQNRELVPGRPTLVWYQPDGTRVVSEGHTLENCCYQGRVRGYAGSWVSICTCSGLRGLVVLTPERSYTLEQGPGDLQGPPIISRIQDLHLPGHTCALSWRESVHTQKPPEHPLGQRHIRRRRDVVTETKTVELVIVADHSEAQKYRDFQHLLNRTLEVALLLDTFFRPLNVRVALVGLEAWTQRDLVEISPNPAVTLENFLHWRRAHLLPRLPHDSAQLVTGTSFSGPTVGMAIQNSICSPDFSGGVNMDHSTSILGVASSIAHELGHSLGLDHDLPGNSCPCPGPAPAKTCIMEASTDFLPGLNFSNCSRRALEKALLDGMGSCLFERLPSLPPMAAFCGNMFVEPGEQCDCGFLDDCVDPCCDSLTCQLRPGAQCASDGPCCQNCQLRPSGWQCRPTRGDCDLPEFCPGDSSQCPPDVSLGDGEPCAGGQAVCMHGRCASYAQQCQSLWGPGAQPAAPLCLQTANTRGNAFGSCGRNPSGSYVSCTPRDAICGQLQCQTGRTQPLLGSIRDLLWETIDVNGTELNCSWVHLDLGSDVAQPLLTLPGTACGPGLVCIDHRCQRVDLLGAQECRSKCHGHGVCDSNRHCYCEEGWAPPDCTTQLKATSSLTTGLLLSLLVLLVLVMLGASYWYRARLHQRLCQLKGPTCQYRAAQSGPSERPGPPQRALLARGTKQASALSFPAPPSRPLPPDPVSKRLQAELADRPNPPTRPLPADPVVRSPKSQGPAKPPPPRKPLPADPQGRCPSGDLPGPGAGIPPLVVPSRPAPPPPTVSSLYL

| Substance | binding [1] | binding [2] |
| --- | --- | --- |
| full-length ADAM15 (from UniProt Q13444-2) | binds | – |
| poly(A) binding protein 1 (PABP) (from UniProt P11940 1-636) | – | binds |

Reference: PMC6161846
